Results from publication PMC7588814.
No constants are given. Whether binding was seen depends on the method and setting. In cells and extracts the contact can be indirect. Some binding calls cover weakened binding; strength is not graded here.

By UniProt entry, the sequences of proteins in these tests, tags left out.
UniProt Q61221: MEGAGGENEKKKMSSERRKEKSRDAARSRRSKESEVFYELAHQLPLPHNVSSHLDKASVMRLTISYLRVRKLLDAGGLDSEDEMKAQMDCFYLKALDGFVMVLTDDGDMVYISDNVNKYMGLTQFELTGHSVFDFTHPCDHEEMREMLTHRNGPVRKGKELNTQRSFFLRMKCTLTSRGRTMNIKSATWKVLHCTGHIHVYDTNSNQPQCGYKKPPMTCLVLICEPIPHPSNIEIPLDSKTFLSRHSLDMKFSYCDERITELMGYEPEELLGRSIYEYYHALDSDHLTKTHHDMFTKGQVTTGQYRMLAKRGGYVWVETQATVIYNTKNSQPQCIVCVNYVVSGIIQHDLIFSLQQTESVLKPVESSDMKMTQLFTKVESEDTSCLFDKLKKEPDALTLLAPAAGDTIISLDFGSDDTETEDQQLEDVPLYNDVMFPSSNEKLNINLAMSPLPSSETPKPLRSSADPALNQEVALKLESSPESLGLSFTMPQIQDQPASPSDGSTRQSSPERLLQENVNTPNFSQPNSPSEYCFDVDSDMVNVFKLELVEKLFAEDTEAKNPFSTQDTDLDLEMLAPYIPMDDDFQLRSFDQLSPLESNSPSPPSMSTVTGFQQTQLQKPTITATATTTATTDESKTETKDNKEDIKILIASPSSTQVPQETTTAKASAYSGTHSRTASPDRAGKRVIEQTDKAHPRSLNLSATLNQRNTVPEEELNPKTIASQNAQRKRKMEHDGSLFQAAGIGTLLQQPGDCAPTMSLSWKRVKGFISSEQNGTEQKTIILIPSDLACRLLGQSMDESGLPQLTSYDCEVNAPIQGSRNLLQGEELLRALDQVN

Target: Hypoxia-inducible factor 1 alpha (HIF-1α) (mouse (endogenous in MC-38 and CT26)) (UniProt Q61221)
Assay: co-IP; MC-38 Mock cell lysate (10 mM Tris-HCl pH 8.0, 1 mM EDTA, 400 mM NaCl, 0.1% NP-40); cells under normoxia or hypoxia (0.2% O2, 8 h) with or without LPS (1 µg/mL, 1 h); 1.5 mg lysate with 6 µg anti-TRAF6 or anti-HIF-1α and Dynabead Protein G overnight at 4 °C; blot for HIF-1α or TRAF6

B1: tumor necrosis factor receptor-associated factor 6 (TRAF6) (protein, UniProt P70196 1-530)
chain: MSLLNCENSCGSSQSSSDCCAAMAASCSAAVKDDSVSGSASTGNLSSSFMEEIQGYDVEFDPPLESKYECPICLMALREAVQTPCGHRFCKACIIKSIRDAGHKCPVDNEILLENQLFPDNFAKREILSLTVKCPNKGCLQKMELRHLEDHQVHCEFALVNCPQCQRPFQKCQVNTHIIEDCPRRQVSCVNCAVSMAYEEKEIHDQSCPLANIICEYCGTILIREQMPNHYDLDCPTAPIPCTFSVFGCHEKMQRNHLARHLQENTQLHMRLLAQAVHNVNLALRPCDAASPSRGCRPEDPNYEETIKQLESRLVRQDHQIRELTAKMETQSMYVGELKRTIRTLEDKVAEMEAQQCNGIYIWKIGNFGMHLKSQEEERPVVIHSPGFYTGRPGYKLCMRLHLQLPTAQRCANYISLFVHTMQGEYDSHLPWPFQGTIRLTILDQSEALIRQNHEEVMDAKPELLAFQRPTIPRNPKGFGYVTFMHLEALRQGTFIKDDTLLVRCEVSTRFDMGGLRKEGFQPRSTDAGV
binding: binds
